Measurements as given in patent US20250179200A1 (UNIVERSITY OF CHICAGO, published 2025).
These are yes or no findings as the source states them, for the method shown. Some results given as binding are weak or reduced against the parent protein; the word gives no strength. For some assays here: Where a sequence is shown, tags or fusion partners need not be part of it.

Chains of the proteins cited; added tags and fusions are not shown. Lines headed by an entry give the natural chain unless they say otherwise; changes in a name come on top. A line that says so, or that is headed by a name, gives the form on record, which may keep a tag or linker. Residues count along the entry.
Growth Hormone Receptor (GHR) immobilized on a high binding plate (P10912, residues 19-264): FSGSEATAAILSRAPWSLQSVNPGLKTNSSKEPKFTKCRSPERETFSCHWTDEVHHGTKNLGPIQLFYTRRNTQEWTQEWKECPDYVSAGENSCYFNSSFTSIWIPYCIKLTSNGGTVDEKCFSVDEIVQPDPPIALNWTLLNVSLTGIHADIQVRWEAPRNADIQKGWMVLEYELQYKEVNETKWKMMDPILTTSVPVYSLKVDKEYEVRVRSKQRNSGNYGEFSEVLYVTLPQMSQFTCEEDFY
GHR-Fc-10× His (human) (P10912, form named): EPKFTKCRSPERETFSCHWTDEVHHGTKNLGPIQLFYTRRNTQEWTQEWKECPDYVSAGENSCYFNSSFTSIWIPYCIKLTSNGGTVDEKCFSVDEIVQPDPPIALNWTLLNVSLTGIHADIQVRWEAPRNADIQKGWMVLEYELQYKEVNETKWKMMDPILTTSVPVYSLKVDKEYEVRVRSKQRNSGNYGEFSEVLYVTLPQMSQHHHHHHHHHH

Legend:
[1] = target: GHR-Fc-10× His (human) (human) (UniProt P10912); assay: SPR
[2] = target: GHR-Fc-10× His (human) (human) (UniProt P10912); assay: SPR (FIG. 12A)
[3] = target: GHR-Fc-10× His (human) (human) (UniProt P10912); assay: SPR, Fab dilution series over human GHR_Fc with 10x His-tag on Ni-NTA chip
[4] = target: GHR-Fc-10× His (human) (human) (UniProt P10912); assay: SPR single injection over human GHR
[5] = target: T1, Murine GHR_Fc with 10× His-tag (murine) (UniProt P16882); assay: SPR, GHR_Fc with 10× His-tag on Ni-NTA chip, Fab as analyte
T1 sequence (chain (part 1 of 2)): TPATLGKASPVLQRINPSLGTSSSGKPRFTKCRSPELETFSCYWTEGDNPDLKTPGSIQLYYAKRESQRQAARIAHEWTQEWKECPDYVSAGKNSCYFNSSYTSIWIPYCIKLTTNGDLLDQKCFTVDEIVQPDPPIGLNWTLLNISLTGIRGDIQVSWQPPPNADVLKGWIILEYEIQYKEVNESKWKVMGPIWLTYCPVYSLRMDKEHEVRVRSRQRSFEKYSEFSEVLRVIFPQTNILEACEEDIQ
T1 sequence (chain (part 2 of 2)): HHHHHHHHHH

[6] = target: T2, Rat GHR_Fc with 10× His-tag (rat) (UniProt P16310); assay: as above
T2 sequence (chain (part 1 of 2)): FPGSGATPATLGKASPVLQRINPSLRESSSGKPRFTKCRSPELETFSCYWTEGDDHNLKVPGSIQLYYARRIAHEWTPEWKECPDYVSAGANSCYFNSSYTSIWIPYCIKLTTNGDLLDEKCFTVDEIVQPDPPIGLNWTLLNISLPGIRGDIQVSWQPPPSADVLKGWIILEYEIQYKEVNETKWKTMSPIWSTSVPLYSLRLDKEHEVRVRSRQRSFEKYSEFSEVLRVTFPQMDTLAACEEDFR
T2 sequence (chain (part 2 of 2)): HHHHHHHHHH

[7] = target: T3, Rabbit GHR_Fc with 10× His-tag (rabbit) (UniProt P19941); assay: as above
T3 sequence (chain (part 1 of 2)): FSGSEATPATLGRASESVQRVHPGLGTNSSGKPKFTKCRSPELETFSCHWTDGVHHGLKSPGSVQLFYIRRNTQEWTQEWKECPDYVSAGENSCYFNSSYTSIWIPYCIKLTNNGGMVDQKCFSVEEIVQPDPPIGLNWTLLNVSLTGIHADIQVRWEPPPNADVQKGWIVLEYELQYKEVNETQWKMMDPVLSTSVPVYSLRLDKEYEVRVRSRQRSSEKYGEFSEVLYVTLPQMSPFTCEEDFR
T3 sequence (chain (part 2 of 2)): HHHHHHHHHH

[8] = target: T4, Pig GHR_Fc with 10× His-tag (pig) (UniProt P19756); assay: as above
T4 sequence (chain (part 1 of 2)): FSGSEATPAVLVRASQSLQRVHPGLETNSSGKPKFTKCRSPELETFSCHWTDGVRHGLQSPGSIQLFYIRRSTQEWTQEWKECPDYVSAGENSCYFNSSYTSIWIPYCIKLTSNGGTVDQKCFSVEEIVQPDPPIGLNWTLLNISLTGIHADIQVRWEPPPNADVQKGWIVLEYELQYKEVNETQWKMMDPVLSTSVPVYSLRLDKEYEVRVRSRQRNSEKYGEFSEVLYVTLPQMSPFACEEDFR
T4 sequence (chain (part 2 of 2)): HHHHHHHHHH

[9] = target: Cyno GHR_Fc with 10× His-tag (cyno); assay: as above
[10] = target: Growth Hormone Receptor (GHR) immobilized on a high binding plate (UniProt P10912); assay: competition ELISA: 200 nM Fab prebound to plate-bound GHR, challenged with B2036 up to 1000 nM, anti-human Fab-HRP
[11] = target: Growth Hormone Receptor (GHR) immobilized on a high binding plate (UniProt P10912); assay: competition ELISA: 200 nM Fab prebound to plate-bound GHR, challenged with GH 1 to 2000 nM, anti-human Fab-HRP
[12] = target: Growth Hormone Receptor (GHR) immobilized on a high binding plate (UniProt P10912); assay: competition ELISA: Fab titrated on plate-bound GHR preincubated with 200 nM GH, anti-human Fab-HRP
[13] = target: T1, Murine GHR_Fc with 10× His-tag (murine); assay: SPR, Fab in two-fold dilutions from 50 nM
[14] = target: T2, Rat GHR_Fc with 10× His-tag (rat); assay: SPR, Fab in two-fold dilutions from 50 nM
[15] = target: GHR-Fc-10× His (human) (human) (UniProt P10912); assay: SPR, Fab in two-fold dilutions from 50 nM
[16] = target: T3, Rabbit GHR_Fc with 10× His-tag (rabbit); assay: SPR, Fab in two-fold dilutions from 50 nM
[17] = target: T4, Pig GHR_Fc with 10× His-tag (pig); assay: SPR, Fab in two-fold dilutions from 50 nM
[18] = target: Cyno GHR_Fc with 10× His-tag (cyno); assay: SPR, Fab in two-fold dilutions from 50 nM
[19] = target: Growth Hormone Receptor (GHR) immobilized on a high binding plate (UniProt P10912); assay: competition ELISA, GHR on the plate preincubated with 200 nM human GH, bound Fab detected

Measured: binding

B1: GHR_TS23.1 Fab (Fab, V domains shown)
VH: EVQLVESGGGLVQPGGSLRLSCAASGFNFYYSSIHWVRQAPGKGLEWVASIYSYSGSTSYADSVKGRFTISADTSKNTAYLQMNSLRAEDTAVYYCARQDWYYGGYFYYGIDYWGQGTLVTVSS
VL: DIQMTQSPSSLSASVGDRVTITCRASQSVSSAVAWYQQKPGKAPKLLIYSASSLYSGVPSRFSGSRSGTDFTLTISSLQPEDFATYYCQQYWSTLITFGQGTKVEIKR
binds: [1] | [2] | [3] | [4]

B2: GHR_TS23 Fab (Fab, V domains shown)
VH: EVQLVESGGGLVQPGGSLRLSCAASGFNFYYSSIHWVRQAPGKGLEWVASIYSYSGSTSYADSVKGRFTISADTSKNTAYLQMNSLRAEDTAVYYCARQYWYYGGYFYYGIDYWGQGTLVTVSS
VL: DIQMTQSPSSLSASVGDRVTITCRASQSVSSAVAWYQQKPGKAPKLLIYSASSLYSGVPSRFSGSRSGTDFTLTISSLQPEDFATYYCQQYWSTLITFGQGTKVEIKR
not listed: [1] | [2] | [3]
binds: all other assays above
